According to PMC4459967:
Results are given in words; binding and its absence hold for the method and conditions named. In cells and extracts the contact can be indirect. A yes stands for co-enrichment or nearness to the bait. Other partners may have been found. For part of these data: A no says only that the protein was not detected with the bait. Where a sequence is shown, tags or fusion partners need not be part of it.

Amino acid sequences for entries named in this document (tags omitted). A change or cut given only in a name is not applied to a line headed by its entry.
UniProt P41917: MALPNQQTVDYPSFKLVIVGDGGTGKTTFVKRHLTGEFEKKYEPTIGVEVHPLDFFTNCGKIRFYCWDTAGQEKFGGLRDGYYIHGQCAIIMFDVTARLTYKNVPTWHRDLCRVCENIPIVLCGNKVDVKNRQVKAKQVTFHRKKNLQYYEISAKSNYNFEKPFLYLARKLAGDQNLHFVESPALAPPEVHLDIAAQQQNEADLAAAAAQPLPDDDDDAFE
UniProt F4HW04: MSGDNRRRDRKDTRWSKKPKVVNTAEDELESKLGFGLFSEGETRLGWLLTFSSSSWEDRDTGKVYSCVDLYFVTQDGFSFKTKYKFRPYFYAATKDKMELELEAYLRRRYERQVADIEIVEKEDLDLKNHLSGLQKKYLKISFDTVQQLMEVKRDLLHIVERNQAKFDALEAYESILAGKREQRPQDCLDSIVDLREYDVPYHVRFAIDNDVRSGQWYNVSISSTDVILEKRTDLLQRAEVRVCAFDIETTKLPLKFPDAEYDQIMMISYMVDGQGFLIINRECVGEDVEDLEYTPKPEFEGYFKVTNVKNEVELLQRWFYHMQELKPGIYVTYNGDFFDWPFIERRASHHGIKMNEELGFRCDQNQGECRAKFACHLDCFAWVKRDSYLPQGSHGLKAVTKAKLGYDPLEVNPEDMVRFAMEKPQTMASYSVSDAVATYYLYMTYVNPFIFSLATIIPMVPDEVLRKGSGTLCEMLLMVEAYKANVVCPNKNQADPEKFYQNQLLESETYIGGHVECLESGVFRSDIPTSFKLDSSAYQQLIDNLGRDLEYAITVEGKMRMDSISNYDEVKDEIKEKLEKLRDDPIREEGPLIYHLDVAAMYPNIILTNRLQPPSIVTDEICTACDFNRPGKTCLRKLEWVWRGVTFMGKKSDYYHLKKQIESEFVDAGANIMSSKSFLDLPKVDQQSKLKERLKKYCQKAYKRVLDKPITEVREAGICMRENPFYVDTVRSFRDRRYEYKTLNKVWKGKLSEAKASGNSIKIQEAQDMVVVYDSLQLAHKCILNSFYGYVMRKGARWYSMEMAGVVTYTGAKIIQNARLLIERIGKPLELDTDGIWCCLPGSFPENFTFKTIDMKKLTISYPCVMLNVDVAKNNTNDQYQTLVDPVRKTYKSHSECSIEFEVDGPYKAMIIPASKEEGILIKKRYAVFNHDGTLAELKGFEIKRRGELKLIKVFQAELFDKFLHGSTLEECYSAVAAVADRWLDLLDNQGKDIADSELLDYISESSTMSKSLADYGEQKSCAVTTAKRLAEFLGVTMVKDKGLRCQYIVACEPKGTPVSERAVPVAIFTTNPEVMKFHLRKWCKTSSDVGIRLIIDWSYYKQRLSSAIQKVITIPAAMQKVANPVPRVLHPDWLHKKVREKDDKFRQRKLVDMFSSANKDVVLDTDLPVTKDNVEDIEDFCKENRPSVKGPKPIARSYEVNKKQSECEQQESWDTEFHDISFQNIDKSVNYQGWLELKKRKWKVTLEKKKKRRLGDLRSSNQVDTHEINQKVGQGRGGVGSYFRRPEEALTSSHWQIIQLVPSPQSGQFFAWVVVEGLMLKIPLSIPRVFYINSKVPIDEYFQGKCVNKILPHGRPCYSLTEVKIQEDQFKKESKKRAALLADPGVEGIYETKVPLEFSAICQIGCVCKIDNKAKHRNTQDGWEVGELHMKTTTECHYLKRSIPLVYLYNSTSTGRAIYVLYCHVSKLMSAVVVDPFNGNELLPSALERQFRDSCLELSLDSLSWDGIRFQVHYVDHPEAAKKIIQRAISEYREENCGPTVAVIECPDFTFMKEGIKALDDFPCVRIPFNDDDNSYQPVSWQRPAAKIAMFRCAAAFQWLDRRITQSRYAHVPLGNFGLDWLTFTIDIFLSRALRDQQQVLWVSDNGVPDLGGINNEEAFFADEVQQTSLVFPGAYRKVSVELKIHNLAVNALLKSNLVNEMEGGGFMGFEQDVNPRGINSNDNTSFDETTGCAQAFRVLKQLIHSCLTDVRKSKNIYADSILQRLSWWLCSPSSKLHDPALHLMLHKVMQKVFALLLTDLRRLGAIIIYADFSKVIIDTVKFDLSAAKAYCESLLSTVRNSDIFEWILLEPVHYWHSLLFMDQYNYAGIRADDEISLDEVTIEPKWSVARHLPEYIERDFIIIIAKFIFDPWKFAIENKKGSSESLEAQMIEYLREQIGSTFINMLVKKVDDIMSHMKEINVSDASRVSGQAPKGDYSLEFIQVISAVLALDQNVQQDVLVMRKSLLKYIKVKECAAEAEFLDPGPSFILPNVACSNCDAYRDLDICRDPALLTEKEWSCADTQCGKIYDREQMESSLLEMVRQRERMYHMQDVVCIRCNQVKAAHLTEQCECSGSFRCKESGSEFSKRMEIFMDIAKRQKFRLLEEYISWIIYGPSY
UniProt Q9FHA3: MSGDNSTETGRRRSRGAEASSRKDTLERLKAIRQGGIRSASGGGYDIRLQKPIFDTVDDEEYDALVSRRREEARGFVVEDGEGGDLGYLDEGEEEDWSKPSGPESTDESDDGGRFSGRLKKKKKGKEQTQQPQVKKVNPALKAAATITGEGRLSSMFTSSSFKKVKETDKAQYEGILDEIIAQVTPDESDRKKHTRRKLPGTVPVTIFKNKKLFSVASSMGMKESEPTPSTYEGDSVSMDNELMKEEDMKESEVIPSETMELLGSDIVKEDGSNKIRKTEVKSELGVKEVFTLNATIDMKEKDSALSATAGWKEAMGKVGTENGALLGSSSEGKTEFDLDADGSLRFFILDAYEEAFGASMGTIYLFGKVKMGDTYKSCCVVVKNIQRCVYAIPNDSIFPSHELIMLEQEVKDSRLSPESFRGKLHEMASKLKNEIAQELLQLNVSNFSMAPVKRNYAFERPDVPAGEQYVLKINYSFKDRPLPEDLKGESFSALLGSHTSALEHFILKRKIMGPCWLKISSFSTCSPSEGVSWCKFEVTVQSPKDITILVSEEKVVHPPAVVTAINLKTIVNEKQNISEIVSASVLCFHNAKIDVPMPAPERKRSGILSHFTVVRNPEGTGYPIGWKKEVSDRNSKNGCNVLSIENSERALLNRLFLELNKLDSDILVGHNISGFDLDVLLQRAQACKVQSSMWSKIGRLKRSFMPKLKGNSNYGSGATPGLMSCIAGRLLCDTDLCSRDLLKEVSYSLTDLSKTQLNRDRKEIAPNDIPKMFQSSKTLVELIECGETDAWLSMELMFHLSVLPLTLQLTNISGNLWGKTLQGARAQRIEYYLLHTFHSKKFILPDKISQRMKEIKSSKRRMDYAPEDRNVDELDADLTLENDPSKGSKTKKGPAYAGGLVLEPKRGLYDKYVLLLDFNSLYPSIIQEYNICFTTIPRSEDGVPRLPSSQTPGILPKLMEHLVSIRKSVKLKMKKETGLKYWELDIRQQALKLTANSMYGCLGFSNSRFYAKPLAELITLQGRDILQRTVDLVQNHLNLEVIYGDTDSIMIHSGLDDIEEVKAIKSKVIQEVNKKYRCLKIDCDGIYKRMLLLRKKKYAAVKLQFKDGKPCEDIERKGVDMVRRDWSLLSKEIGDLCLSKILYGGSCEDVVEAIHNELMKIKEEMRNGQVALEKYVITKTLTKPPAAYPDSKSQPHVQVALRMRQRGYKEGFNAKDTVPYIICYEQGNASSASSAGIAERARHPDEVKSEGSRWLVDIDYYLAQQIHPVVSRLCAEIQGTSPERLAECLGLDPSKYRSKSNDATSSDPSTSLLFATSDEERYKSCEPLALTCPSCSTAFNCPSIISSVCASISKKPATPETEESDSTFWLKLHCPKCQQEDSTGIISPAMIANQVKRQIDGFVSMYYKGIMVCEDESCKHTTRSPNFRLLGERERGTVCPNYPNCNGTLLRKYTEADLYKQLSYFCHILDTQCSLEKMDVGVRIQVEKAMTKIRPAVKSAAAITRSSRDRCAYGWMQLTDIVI

What was measured:
Assay in all cases: affinity purification with mass spectrometry; anti-Myc (MMS19-Myc) or anti-Flag (CIA1-Flag, CIA2-Flag) antibody-conjugated beads on extracts of flowers or seedlings of transgenic plants; CIA1-Flag and CIA2-Flag in the wild-type background, also done in the mms19 mutant background; lysis buffer 50 mM Tris-HCl pH 7.6, 150 mM NaCl, 5 mM MgCl2, 10% glycerol, 0.1% NP-40, 0.5 mM DTT; 4 °C; wild-type plants as control
[1] = biological target: T1, CIA1-Flag (Arabidopsis thaliana) (UniProt O80990)
T1 sequence: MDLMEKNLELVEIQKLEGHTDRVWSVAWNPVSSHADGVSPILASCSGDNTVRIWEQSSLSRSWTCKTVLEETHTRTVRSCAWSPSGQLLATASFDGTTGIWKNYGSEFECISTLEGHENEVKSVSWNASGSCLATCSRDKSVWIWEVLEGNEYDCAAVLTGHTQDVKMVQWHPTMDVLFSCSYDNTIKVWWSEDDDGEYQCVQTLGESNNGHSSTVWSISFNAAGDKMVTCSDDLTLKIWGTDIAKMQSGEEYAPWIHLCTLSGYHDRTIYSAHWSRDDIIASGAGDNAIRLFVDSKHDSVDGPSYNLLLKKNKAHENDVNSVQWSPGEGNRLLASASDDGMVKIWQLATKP

[2] = biological target: T2, CIA2-Flag (Arabidopsis thaliana) (UniProt Q9C9G6)
T2 sequence: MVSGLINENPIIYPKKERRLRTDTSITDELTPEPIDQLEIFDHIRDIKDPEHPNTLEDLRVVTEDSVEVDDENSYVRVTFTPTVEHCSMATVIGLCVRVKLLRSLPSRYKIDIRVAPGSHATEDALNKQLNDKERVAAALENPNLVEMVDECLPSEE

[3] = biological target: T3, MMS19-Myc (Arabidopsis thaliana) (UniProt Q0WVF8)
T3 sequence: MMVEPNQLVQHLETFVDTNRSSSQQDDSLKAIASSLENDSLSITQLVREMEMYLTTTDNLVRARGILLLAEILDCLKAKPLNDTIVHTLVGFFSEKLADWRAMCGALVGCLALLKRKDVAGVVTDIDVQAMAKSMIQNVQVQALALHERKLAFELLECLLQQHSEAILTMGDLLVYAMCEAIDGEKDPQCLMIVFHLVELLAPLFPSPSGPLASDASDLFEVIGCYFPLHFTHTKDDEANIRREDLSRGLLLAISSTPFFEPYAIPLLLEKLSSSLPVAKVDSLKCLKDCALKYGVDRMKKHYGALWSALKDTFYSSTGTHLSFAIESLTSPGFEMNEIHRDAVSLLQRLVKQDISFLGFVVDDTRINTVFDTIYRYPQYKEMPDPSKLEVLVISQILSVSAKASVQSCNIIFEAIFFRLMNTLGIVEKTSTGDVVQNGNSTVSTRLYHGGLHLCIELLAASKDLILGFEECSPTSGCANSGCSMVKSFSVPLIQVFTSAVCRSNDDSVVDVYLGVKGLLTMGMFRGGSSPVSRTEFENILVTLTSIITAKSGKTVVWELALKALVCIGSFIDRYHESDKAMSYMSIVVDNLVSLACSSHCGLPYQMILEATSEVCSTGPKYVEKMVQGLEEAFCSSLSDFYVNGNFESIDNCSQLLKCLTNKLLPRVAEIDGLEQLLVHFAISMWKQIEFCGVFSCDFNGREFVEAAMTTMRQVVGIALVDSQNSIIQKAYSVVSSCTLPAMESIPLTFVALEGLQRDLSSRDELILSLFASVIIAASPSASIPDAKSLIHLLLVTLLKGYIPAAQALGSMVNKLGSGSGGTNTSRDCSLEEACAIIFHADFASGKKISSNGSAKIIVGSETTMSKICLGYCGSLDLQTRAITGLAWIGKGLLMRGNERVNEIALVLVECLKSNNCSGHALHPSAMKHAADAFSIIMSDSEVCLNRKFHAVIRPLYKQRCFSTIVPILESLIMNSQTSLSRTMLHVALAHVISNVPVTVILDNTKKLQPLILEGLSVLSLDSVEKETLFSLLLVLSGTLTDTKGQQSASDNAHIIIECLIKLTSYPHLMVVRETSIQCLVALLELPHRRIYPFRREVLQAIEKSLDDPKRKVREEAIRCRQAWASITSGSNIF

Row | binding [1] | binding [2] | binding [3] | Substance
1 | binds | binds | binds | RAN2 (from UniProt P41917 1-221)
2 | no binding | no binding | binds | ABO4, catalytic subunit of DNA polymerase ε (from UniProt F4HW04 1-2161)
3 | no binding | no binding | binds | ICU2, catalytic subunit of DNA polymerase α (from UniProt Q9FHA3)
